Record: PubChem BioAssay AID504793 (Drosophila RNAi Screening Center, 2011)
The screen tested about 23,000 reagents; this is a random part of those with a known target gene and a result. Over the whole deposit, 62 (0.27%) are marked active. 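Calls come from follow-up tests whose scores are not deposited, so confirmed genes may have low counts here; counts are not normalised per plate.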 The raw values are shown without normalisation. Unmarked entries are inactive. Names joined by + are all predicted targets of the reagent.

Test: 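Genes required for cells to halt at G2/M after double-strand DNA breaks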 (primary screen)
Cell system: Drosophila S2R+ cells
Reagent: long dsRNA against Drosophila genes, about 0.25 µg dsRNA per well
Time to read-out: 4 days of dsRNA, then 4 hours of drug before read-out
Challenge: doxorubicin 0.5 µM for 4 hours to cause double-strand breaks, in cells also given a low, harmless dose of dsRNA against nbs to sensitise the assay
Measurement: 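Mitotic index as the number of phospho-histone H3-positive cells in each well following doxorubicin, given as raw counts without normalisation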
Scale: mitotic cells: higher = more cells in mitosis, weaker G2 arrest
Call rule: 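a call needs confirmation in secondary tests, with other dsRNAs and a check of mitotic timing without damage, not just a high primary count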
Calls: active = confirmed in follow-up tests; inactive = not confirmed

| target gene | amplicon | mitotic cells, replicate 1 |
| --- | --- | --- |
| CG8142 | DRSC20086 | 3 |
| CG8142 | DRSC26373 | 3 |
| CG15482 | DRSC02492 | 3 |
| Lamtor4 | DRSC08436 | 3 |
| tum | DRSC07575 | 14 |
| lectin-21Cb | DRSC00355 | 1 |
| CG8852 | DRSC00719 | 4 |
| CG8852 | DRSC24465 | 7 |
| CG10970 | DRSC17772 | 6 |
| CG30371 | DRSC06835 | 9 |
| CG12934 | DRSC06247 | 6 |
| CG12934 | DRSC23570 | 4 |
| CG17648 | DRSC00508 | 3 |
| mi | DRSC04498 | 13 |
| mi | DRSC29425 | 4 |
| dve | DRSC04680 | 4 |
| dve | DRSC28692 | 6 |
| CG7916 | DRSC01901 | 1 |
| sals | DRSC14925 | 6 |
| sals | DRSC16113 | 1 |
| sals | DRSC28473 | 8 |
| side-VIII | DRSC05880 | 20 |
| side-VIII | DRSC05883 | 5 |
| side-VIII | DRSC06157 | 13 |
| side-VIII | DRSC23187 | 11 |
| side-VIII | DRSC28353 | 9 |
| CG12347 | DRSC14502 | 6 |
| CG1317 | DRSC08305 | 6 |
| Rab26 | DRSC11838 | 7 |
| Rab26 | DRSC11839 | 9 |
| Rab26 | DRSC24968 | 6 |
| Rab26 | DRSC27712 | 3 |
| kay | DRSC13962 | 6 |
| kay | DRSC16977 | 19 |
| Mtpalpha | DRSC01994 | 9 |
| CG16986 | DRSC08502 | 14 |
| CG18231 | DRSC10307 | 5 |
| Fa2h | DRSC06608 | 2 |
| Fa2h | DRSC06609 | 4 |
| CG12817 | DRSC14555 | 7 |
| CG34396 | DRSC04245 | 4 |
| CG34396 | DRSC04246 | 7 |
| CG34396 | DRSC29674 | 14 |
| CG13306 | DRSC09976 | 6 |
| E(spl)m5-HLH | DRSC16695 | 12 |
| E(spl)m5-HLH | DRSC28232 | 10 |
| pug | DRSC17036 | 6 |
| pug | DRSC29896 | 10 |
| Grl58a | DRSC04145 | 5 |
| CG30492 (retired record) + M7BP | DRSC05053 | 9 |
| CG30492 (retired record) + M7BP | DRSC05054 | 7 |
| CG30492 (retired record) + M7BP | DRSC06701 | 3 |
| CG30492 (retired record) + M7BP | DRSC06816 | 6 |
| CG30492 (retired record) + M7BP | DRSC26905 | 7 |
| CG9411 | DRSC20184 | 5 |
| CG9411 | DRSC26840 | 4 |
| CG31344 | DRSC16069 | 3 |
| CG31344 | DRSC29593 | 6 |
| SkpD | DRSC22208 | 6 |
| CG42376 + cin | DRSC18752 | 5 |
| CG42376 + cin | DRSC29294 | 9 |
| CG34253 | DRSC09531 | 7 |
| fra | DRSC07621 | 8 |
| Klf15 | DRSC17742 | 10 |
| ptc | DRSC05117 | 6 |
| ptc | DRSC07669 | 6 |
| cN-IIIB | DRSC04359 | 6 |
| CG14854 | DRSC14978 | 4 |
| flip | DRSC12326 | 7 |
| tilB | DRSC20634 | 8 |
| firl | DRSC02428 | 4 |
| CG18449 | DRSC06754 | 6 |
| LamC | DRSC07453 | 3 |
| LamC | DRSC25517 | 6 |
| CG30427 | DRSC04014 | 5 |
| CG30427 | DRSC04311 | 2 |
| CG30427 | DRSC04323 | 11 |
| CG30427 | DRSC26361 | 8 |

No new results follow: entries from further up.
| target gene | amplicon | mitotic cells, replicate 1 |
| --- | --- | --- |
| Rab26 | DRSC27712 | 3 |
| kay | DRSC13962 | 6 |
| kay | DRSC16977 | 19 |
| Mtpalpha | DRSC01994 | 9 |
| CG16986 | DRSC08502 | 14 |
| CG18231 | DRSC10307 | 5 |
| Fa2h | DRSC06608 | 2 |
| Fa2h | DRSC06609 | 4 |
| CG12817 | DRSC14555 | 7 |
| CG34396 | DRSC04245 | 4 |
| CG34396 | DRSC04246 | 7 |
| CG34396 | DRSC29674 | 14 |
